# Literature values as cited in patent US4057684A, “Alkyl amino-glucopyranoside derivative and process for producing the same” (priority 1975, dated 1977).
# At least one structure is not confirmed: it was looked up by name or label, or the drawing left a doubt.
# Tested on: leukemia L-1210
# Settings: single ip, 15 mg/kg; cited from earlier work
compound,measurement,value
"CC(=O)OC[C@H]1OC(OC(C)=O)[C@H](NC(=O)N(CCCl)N=O)[C@@H](OC(C)=O)[C@@H]1OC(C)=O (stereo partly shown) [GCNU, 3-(tetraacetylglucopyranos-2-yl)-1-(2-chloroethyl)-1-nitrosourea, reference compound]",increase in life span,137%
